Library screening results

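Whole-cell assay for inhibitors of Mycobacterium tuberculosis growth, labelled Cornell in the record; the read-out is not stated. The concentration is filed as 10 mM, unlikely as a test dose, so the dose is not known. The record gives no direction; compounds strong in two other growth screens of this library score well above the rest, so higher reads as stronger inhibition. Of about 53,000 compounds tested this way, about 900 (1.7%) reached 50% or more in at least one test.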

The filed quantity is “Percent Effect” (%).
The controls that fix the scale are not given in the record; negative values are as filed.
The compounds are a random part of those screened.

Compound,Percent Effect
O=C(C1CC1)N1CCc2c(ncnc2NCCc2nc3c(s2)CCC3)C1,-5.878%
O=C(NC1CC(=O)N(C2Cc3ccccc3C2)C1)c1cnccn1 (configuration not stated),-20.16%
O=C(O)C(F)(F)F.c1cc(-c2ccc3c(c2)CCC32CCN(c3nncs3)CC2)ccn1,20.52%
CC(C)N1CCC2(CC1)C(=O)N(c1cccnc1)c1ccc(F)cc12.Cl,1.792%
O=S1(=O)CCCN1Cc1coc(-c2ccc(C(F)(F)F)cc2)n1,-8.411%
Cc1nc(C2CCN(S(C)(=O)=O)CC2)nc2c1CCC(=O)N2CC(C)C,15.36%
Cc1nc(CN2CCCC(NCc3csc(C(C)(C)C)n3)C2)no1 (configuration not stated),3.141%
CC(C)c1ccnc(N[C@H]2COC[C@@H]2N2CCCC2)n1,14.8%
Cc1ccc(CN2CCC3(CC2)C(=O)NCCN3CC2CC2)o1,-37.15%
Cc1noc(C)c1-c1cc(C2CCNCC2)ccn1,2.603%
COCC(O)CN1CCC(NC(=O)c2cccc(C)c2)CC1 (configuration not stated),13.99%
Cc1c(CN2CCCC2c2cncc(CN3CCCC3)n2)cnn1C (configuration not stated),35.46%
CC(=O)NCC(=O)N1CCOC2(CCCN(c3cccnc3)C2)C1.O=C(O)C(F)(F)F (configuration not stated),7.076%
Cc1cnc(CN2CCN(c3ccc4nncn4n3)C(C)C2)cn1 (configuration not stated),-59.67%
C[C@@H]1CN(CCOc2ccc(Cl)cc2)CC[C@@]1(O)C1CCOCC1,-1.154%
CCC(C)N(Cc1ccncc1)Cc1cccc(Cn2cccn2)c1 (configuration not stated),19.71%
O=C(O)C(F)(F)F.[H][C@@]12CCN(C3CCCC3)C[C@]1([H])[C@H](C(=O)NC1CCC1)CCO2,17.32%
Cc1nc(C)n(C2CCCN(C(=O)c3ccc(F)cc3F)C2)n1 (configuration not stated),15.51%
CC(C)N(CCNCc1ccc(C#N)cc1)C1CC1,27.24%
CN(Cc1nc(-c2cccnc2)no1)C(=O)c1c2c(nn1C)CCCC2,13.85%
CCc1nc(CN2CCCC2C(=O)NC2CC2)cs1 (configuration not stated),-39.46%
Cc1cc(NC(=O)CN(C)C2CCCN(c3cccnn3)C2)n(C)n1 (configuration not stated),-22.62%
O=C(O)C(F)(F)F.[H][C@@]12C[C@@H](C(=O)NC(C)C)C[C@@]1([H])N(Cc1cnn(C)c1)CCO2,24.69%
N#CC1(NC(=O)Cn2nnc(-c3cc4ccccc4o3)n2)CCCC1,20.62%
CC(C)Cc1noc(CN2CCC(C(=O)NCC3CCCO3)CC2)n1 (configuration not stated),16.6%
Cn1cc(CCCN2CCCC(c3cc(C(F)(F)F)[nH]n3)C2)cn1 (configuration not stated),18.52%
COc1cccc(N2CCN(Cc3ccc(NC(C)=O)cc3)CC2=O)c1,-1.722%
CC(C)C(NC(=O)c1ccco1)C(=O)N1CCC2(CC1)OCCO2 (configuration not stated),-10.04%
Cc1cc(C)n(Cc2cc(C(=O)N3CCCCC3c3nccs3)n[nH]2)n1 (configuration not stated),-18.67%
CN(C)Cc1cc(C2CCCCN2S(=O)(=O)Cc2ccccc2)nn1C.Cl (configuration not stated),8.494%
N#Cc1csc(CNCCOc2ncccc2Cl)c1,-29.79%
[H][C@@]12CN(C(=O)c3conc3C)C[C@]1([H])C(=O)N(Cc1cccc(C)c1)C2,8.423%
CCS(=O)(=O)NC1CCCN(c2ccc(F)cc2C)C1=O (configuration not stated),17.95%
CNC(=O)C1(Cc2cc(C(C)C)no2)CCN(Cc2cccnc2)C1 (configuration not stated),41.65%
COc1cccc(C(C(=O)O)N2CCC(Cn3cccn3)CC2)c1OC (configuration not stated),-3.503%
[H][C@@]12CCN(Cc3c(C)noc3C)C[C@@]1([H])O[C@H](c1ccncn1)C2,6.3%
[H][C@@]12CN(Cc3cccc(OC)c3)CC[C@]1([H])N(C(C)=O)C[C@H]2c1ccsc1,-66.17%
COc1ccc(SCC2CNc3nc4ccccc4c(=O)n32)cc1 (configuration not stated),44.86%
CCC(=O)NCCc1cc2nc(-c3ccncc3)ccn2n1,11.46%
COc1ccc(CNc2cnn(C)c(=O)c2Cl)cc1,-28.32%
CC1(C)CN=C(N2CCN(CCCN3CCOCC3)CC2)S1,15.57%
O=CO.c1cc2nccc(CC3CCCN(Cc4c[nH]cn4)CC3)c2cn1 (configuration not stated),-44.11%
CS(=O)(=O)CCCN1CCN(C(C#N)c2ccccc2)CC1 (configuration not stated),35.14%
Cc1cc(Cn2cc(C#N)c(=O)c3ccccc32)on1,10.08%
Cc1ncc(CN2CCC3(CC2)CC(=O)N(C)C3)cn1,7.551%
COc1c(C2CCCN2C(=O)c2ccc(C#N)c(C)n2)c(C)nn1C (configuration not stated),-18.37%
Cc1cc(N2CCCN(C(C(=O)O)c3cccc(C)c3F)CC2)ccn1 (configuration not stated),-10.22%
COc1cccc(Cn2cc(N3C(=O)CCC3=O)cn2)c1,12.1%
CC(Cn1cccn1)NC(=O)N(C)Cc1ccc(Cl)s1 (configuration not stated),14.72%
Cc1cc(O)cc(=O)n1CCCC(=O)Nc1n[nH]c2ccccc12,81.79%
CC[C@]12CN3C[C@](CC)(CN(C1)C3c1[nH]c(=O)[nH]c(=O)c1C)C2=O (some centres not stated),-20.01%
CN(C)C(=O)CN1CCCC(c2cncc(-c3cccc(Cl)c3)n2)C1 (configuration not stated),7.885%
CN(CC(=O)NC1CCOCC1)C1CCCN(c2cccnn2)C1 (configuration not stated),7.715%
CCOc1ccccc1C(CC(=O)O)NC(C)=O (configuration not stated),-40.06%
COCC[C@]1(O)CCN(S(=O)(=O)c2ccc(C)cc2OC)C[C@H]1C,13.97%
CC(Cc1ccccn1)N(C)C(=O)c1ncc[nH]1 (configuration not stated),-45.96%
CC(NC(N)=O)C(=O)Nc1ccc(OCc2cccc(F)c2)c(F)c1 (configuration not stated),-9.279%
O=C1CCC(=O)c2oc3ccccc3c2N1,17.72%
[H][C@@]12OCCN(C(=O)C3CCOCC3)[C@@]1([H])CC[C@H]2OCC1CC1,5.122%
Cc1occc1-c1nc(-c2cccc(CN3CCOCC3)c2)no1,32.71%
Cc1cc(NCCC(=O)NC(C)C)nc(-c2ccncc2)n1,16.64%
OCCCN1CCCC1c1nc(Cc2ccc(F)cc2)no1 (configuration not stated),-17.18%
Cn1ncc(N2CCC(CNC3CC(C)(C)CC(C)(C)C3)C2)cc1=O (configuration not stated),-38.39%
c1ccc(-c2nnn3c2COC(CNCc2ccccn2)C3)cc1 (configuration not stated),21.25%
Cc1cc(N(C)CC2COc3ccccc3O2)nc(C)n1 (configuration not stated),22.34%
Cc1ccccc1-c1noc(CN2CCC(N3CCNC3=O)CC2)n1,-0.1545%
NC(=O)CN1CCC(NC(=O)COCCOc2ccccc2)CC1,26.07%
COCCN1CCN(C(C)C(=O)Nc2ccnn2C(C)C)CC1 (configuration not stated),-21.82%
CCOc1ccc(CNC(=O)c2cnc(OC)nc2)cc1,23.13%
O=C(Nc1ccc2c(c1)C(=O)NC2=O)c1ccc(Cl)s1,10.23%

Repeated from the top, 5 entries:

Compound	Percent Effect
O=C(C1CC1)N1CCc2c(ncnc2NCCc2nc3c(s2)CCC3)C1	-5.878%
O=C(NC1CC(=O)N(C2Cc3ccccc3C2)C1)c1cnccn1 (configuration not stated)	-20.16%
O=C(O)C(F)(F)F.c1cc(-c2ccc3c(c2)CCC32CCN(c3nncs3)CC2)ccn1	20.52%
CC(C)N1CCC2(CC1)C(=O)N(c1cccnc1)c1ccc(F)cc12.Cl	1.792%
O=S1(=O)CCCN1Cc1coc(-c2ccc(C(F)(F)F)cc2)n1	-8.411%

Data taken from ChEMBL document CHEMBL3988442, “University of Dundee, Small-Polar-MMV Screening Library” (2021).